Reference: PubChem BioAssay AID624132 (Broad Institute, 2012)
Out of some 1,600 compounds screened, about 1,500 (94%) were called active. So high a share suggests a set chosen from earlier hits. The shares of active, inactive and inconclusive entries below differ from those in the screen.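 The calls were made as follows: active = signal drop with fitted half-maximal concentration at most twice the top valid dose for that sample; inconclusive = flat fit between 30 and 70% inhibition, or poor curve fit; inactive = the rest.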

Test: Shn3 3'UTR reporter inhibitors, dose response, cell-based, Clone20 osteoblasts, firefly luciferase, cherry-picked (AID 624132)
Details: Clone20 osteoblast Shn3 3'UTR firefly luciferase, 24 h; at 35 µM (top of the series)

| Structure (SMILES) | activity change, negative = inhibition |
| --- | --- |
| CC(C)CC(NC(=O)CCCNC(=O)CCC(=O)OC1O[C@H]2OC3(C)CC[C@H]4[C@H](C)CCC(C1C)C24OO3)C(=O)O (stereo partly drawn) | inconclusive: -98.9% |
| CC[C@@H](O)C[C@H]1CCC[C@@]2(C[C@@H]3OC(=O)/C=C/[C@@](C)(O)[C@@H](O)[C@H](C)[C@@H](O)[C@H](OC4CCC(N(C)C)C(C)O4)[C@@H](O)[C@](C)(O)CCCCC/C=C/[C@@H]4CC(C)(C)O[C@@]4(O)C[C@H](O2)[C@H]3C)O1 (stereo partly drawn) | inconclusive: -99.8% |
| CC(C)(C)c1ccc(CSc2cnn(C(C)(C)C)c(=O)c2Cl)cc1 | inconclusive: -64.2% |
